# Results deposited as PubChem BioAssay AID743454 (Peter MacCallum Cancer Centre, 2014)
# Purpose: 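Genes whose loss kills vorinostat-resistant colon cancer cells under vorinostat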 (primary screen)
# System: human HCT116-VR colon cancer cells, selected for vorinostat resistance
# Reagent: siRNA pool against human genes, 40 nM siRNA pool
# Timing: vorinostat for 24 h, read-out about 72 h after transfection
# Challenge: vorinostat at 2.5 µM final
# Detection: 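Two measures, CellTiter-Fluor viability and luminescent caspase 3/7 activity, each as fold change against same-plate mock wells, mean of duplicates, then screen-wide robust z-score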
# Direction: viability robust z-score: higher = more viable cells than screen typical; caspase robust z-score: higher = more caspase 3/7 activity than screen typical
# Hit rule: 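Hits are knock-downs in viability class RV1/RV2 or caspase class CA1/CA2, excluding ones that killed cells in the no-drug cell-count arm; hits then retested with single siRNAs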
# This is a random part of about 18,000 reagents. 450 of all reagents (2.5%) were called active. 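Single biological run; no consistent viability z cut-off exists, so the class columns, not z-scores, define the calls.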 The numbers tell different reagents against one gene apart.
Gene,reagent,viability hit class,caspase hit class,viability robust z-score,caspase robust z-score,outcome
GPR68,1,no change,no change,-0.39,2.06,inactive
MT1A,1,no change,no change,-0.95,1.64,inactive
RNASE12,1,no change,no change,0,0.12,inactive
CARTPT,1,no change,no change,-0.5,-1.1,inactive
LHX3,1,no change,no change,-0.22,-0.58,inactive
OR2T11,1,no change,no change,-1.16,-0.12,inactive
VAX1,1,no change,CA1 (caspase activation),-0.3,6.54,active
RHOB,1,no change,no change,0,0.26,inactive
MMP11,1,no change,no change,-2.42,-0.34,inactive
OPN1LW,1,no change,no change,0.46,-0.2,inactive
CDC123,1,no change,no change,-0.5,0.04,inactive
SLC29A1,1,no change,no change,-3.46,0.82,inactive
IL16,1,no change,no change,0.06,0.27,inactive
LGALS13,1,no change,no change,1.61,-1,inactive
EMILIN3,1,no change,no change,0.74,-0.61,inactive
HOXA6,1,no change,no change,0.96,0.96,inactive
FUCA1,1,no change,no change,0.04,0.26,inactive
SCGB3A2,1,no change,no change,-0.28,-0.52,inactive
GNAQ,1,no change,no change,0.18,3.18,inactive
CCDC148,1,no change,no change,2.02,-0.5,inactive

5 entries from above, set out differently.
| Gene | reagent | viability hit class | caspase hit class | viability robust z-score | caspase robust z-score | outcome |
| --- | --- | --- | --- | --- | --- | --- |
| OPN1LW | 1 | no change | no change | 0.46 | -0.2 | inactive |
| CDC123 | 1 | no change | no change | -0.5 | 0.04 | inactive |
| SLC29A1 | 1 | no change | no change | -3.46 | 0.82 | inactive |
| IL16 | 1 | no change | no change | 0.06 | 0.27 | inactive |
| LGALS13 | 1 | no change | no change | 1.61 | -1 | inactive |

Further reagents:
Gene,reagent,viability hit class,caspase hit class,viability robust z-score,caspase robust z-score,outcome
NCEH1,1,no change,no change,0.68,-0.43,inactive
ITFG1,1,no change,no change,0.38,0.12,inactive
CALCRL,1,no change,no change,0.81,-0.76,inactive
SELENOK,1,no change,no change,0.94,-0.82,inactive
IGSF1,1,no change,no change,-0.02,-0.56,inactive
WNK1,1,no change,no change,-0.34,0.53,inactive
WNK1,2,no change,no change,0.08,-0.62,inactive
EXOC7,1,no change,no change,-0.74,-1.06,inactive
ZBED8,1,no change,no change,-1.53,-0.89,inactive
ASB14,1,no change,no change,-0.22,0.44,inactive
ZNF493,1,no change,no change,-0.18,1.9,inactive
SRGAP2,1,no change,no change,-0.26,1.98,inactive
NFYB,1,no change,no change,0.86,2.8,inactive
WDR44,1,no change,no change,0.66,-0.33,inactive
HTR2A,1,no change,no change,1.07,0.93,inactive
DHX36,1,no change,no change,0.6,0.97,inactive
PPP2R5D,1,no change,no change,1.31,0.78,inactive
LARGE2,1,no change,no change,0.99,0.9,inactive
HIRIP3,1,no change,no change,-1.13,-1.06,inactive
MMP17,1,no change,no change,2.25,-0.52,inactive
CNIH1,1,no change,no change,-0.65,-0.5,inactive
SMNDC1,1,no change,no change,0.2,-0.32,inactive
CPEB4,1,no change,no change,-0.78,0.28,inactive
ZBTB6,1,no change,no change,0.28,2.31,inactive
ANK3,1,no change,no change,0.26,-0.7,inactive
MAU2,1,no change,no change,-2.37,4.48,inactive
FAM81B,1,no change,no change,0.86,2.42,inactive
PRPF38B,1,no change,no change,0.57,-0.49,inactive
BATF,1,no change,no change,0.3,-0.6,inactive
CXCL1,1,no change,no change,0.72,-0.3,inactive
ATG4A,1,no change,no change,0.72,-1.01,inactive
ZC3H7B,1,no change,no change,-0.91,2.42,inactive
TMOD4,1,no change,no change,0.26,-0.12,inactive
CDCP1,1,no change,no change,-0.95,0.72,inactive
MTA3,1,no change,no change,0.4,-0.28,inactive
ZNF142,1,no change,no change,-0.16,-0.62,inactive
EGLN1,1,no change,no change,-0.29,1.29,inactive
